Data from US12447129B2, “Solid dosage form production” (University of Lancashire, priority 2014, dated 2025).
Some entries share one result that the patent states for a list of compounds.

Assay: ThermoGravimetric Analysis (TGA), Example 6
Format: physicochemical
Conditions: thermal analysis of fillers used with Eudragit® E

For OC[C@H]1O[C@@H](O[C@H]2[C@H](O)[C@@H](O)C(O)O[C@@H]2CO)[C@H](O)[C@@H](O)[C@H]1O (stereo partly shown) [lactose], the “temperature post which the filler tends to start to degrade” value was > 140 °C.
